± gives the standard deviation of the averaged measurements. The list shows a part of the results. Many values rest on one well or one pass, so single values are uncertain.
These compounds were tested on Geomyces destructans (assay: growth inhibition relative to DMSO control; higher = stronger growth inhibition). Settings: 10 µM; 15 °C; incubation time 10 days.

| Compound | growth inhibition [%] |
| --- | --- |
| O=C(O)c1nc2cc(Cl)c(Cl)cc2nc1O | -27.2 |
| CC(=O)OCC[N+](C)(C)C | -5.15 |
| CC(=O)Oc1ccc(O)cc1 | -7.05 |
| C[C@H](CCC(=O)O)[C@H]1CC[C@H]2[C@@H]3CC[C@@H]4C[C@H](O)CC[C@]4(C)[C@H]3CC[C@]12C | -6.67 |
| CC1COc2c(N3CCN(C)CC3)c(F)cc3c(=O)c(C(=O)O)cn1c23 (stereo not drawn) | -3.02 |
| O=C(O)CCCC[C@@H]1SC[C@@H]2NC(=O)N[C@@H]21 | -9.44 |
| Cc1coc2ccccc2c1=O | -15.7 |
| COc1cc(C)c2c(=O)c3c(O)cc(O)cc3oc2c1 | -3.7 |
| COc1ccc2c(c1)O[C@H]1c3ccc(OC)cc3OC[C@@H]21 | 1.81 |
| Fc1ccc(C(c2ccccc2)(c2ccccc2F)n2ccnc2)cc1 (stereo not drawn) | -7.2 |
| CC(C)NCC(O)c1cc(O)cc(O)c1 (stereo not drawn) | 1.61 |
| CCN(CC)Cc1cc(Nc2ccnc3cc(Cl)ccc23)ccc1O | -31.9 |
| O=C(/C=C/C=C/c1ccc2c(c1)OCO2)N1CCCCC1 | -15.7 |
| CCC(=O)OCC(=O)[C@@]1(OC(=O)CC)[C@@H](C)C[C@H]2[C@@H]3CCC4=CC(=O)C=C[C@]4(C)[C@@]3(Cl)[C@@H](O)C[C@@]21C | -34 |
| C=C(C)/C=C1/C=CC(=O)C(C)=C1 | -11.4 |
| OC[C@H]1O[C@@](CO)(O[C@H]2O[C@H](CO)[C@@H](O)[C@H](O)[C@H]2O)[C@@H](O[C@H]2O[C@H](CO)[C@@H](O)[C@H](O)[C@H]2O)[C@@H]1O | -16.5 |
| NCCCC[C@H](NC(=O)[C@H](Cc1ccc(O)cc1)NC(=O)[C@@H](N)CCCCN)C(=O)O | -29.4 |
| COc1ccccc1N1CCN(CCCNc2cc(=O)n(C)c(=O)n2C)CC1 | 23.7 |
| CC(C)CCCC(C)C1CCC2C3CCC4CC(O)CCC4(C)C3CCC12C (stereo not drawn) | -2.93 |
| O=C1CCC(N2C(=O)c3ccccc3C2=O)C(=O)N1 (stereo not drawn) | -35.9 |
| CC1(C)C[C@@H]2C(=O)CC[C@H]3O[C@]3(C)CC[C@H]21 | -5.26 |

| Compound | growth inhibition [%] |
| --- | --- |
| COc1c(O)cc2oc3cc(O)c(CC=C(C)C)c(O)c3c(=O)c2c1CC=C(C)C [alpha-MANGOSTIN] | 18.7 |
| CCOC(=O)C1(O)Oc2cc(OC)cc(OC)c2C(=O)C1c1ccccc1 (stereo not drawn) | -17.8 |
| COC(=O)C[C@H]1C(C)(C)[C@@H](OC(C)=O)[C@@H]2CC3C4CC(=O)O[C@@H](c5ccoc5)[C@]4(C)CCC3[C@@]1(C)C2=O (stereo partly drawn) | -8.86 |
| CC1(C)S[C@@H]2[C@H](NC(=O)Cc3ccccc3)C(=O)N2[C@H]1C(=O)O | -26.7 |
| CCCCc1nc(Cl)c(CO)n1Cc1ccc(-c2ccccc2-c2nnn[nH]2)cc1 | -28.6 |
| CCN(CC)CCNC(=O)COc1ccc(OC)cc1 | -12 |
| CC(=O)OCC1=C(C(=O)O)N2C(=O)[C@@H](NC(=O)Cc3cccs3)[C@H]2SC1 | -1.52 |
| CC(N)C(=O)OC(C)(C)Cc1ccc(Cl)cc1 (stereo not drawn) | -42.3 |
| Cc1cccc(Nc2ccccc2C(=O)O)c1C | -2.9 |
| CNCCCN1c2ccccc2CCc2ccccc21 | -3.41 |
| O=C(O)[C@]1(O)C[C@@H](O)[C@@H](O)[C@H](O)C1 | -2.02 |
| CC[n+]1c(-c2ccccc2)c2cc(N)ccc2c2ccc(N)cc21 | 70.2 |
| C[n+]1ccccc1C=NO | -6.3 |
| O=c1c2ccccc2oc2ccc(O)cc12 | 0.751 |
| C=C1C2=CC(=O)O[C@@H](c3ccoc3)[C@]2(C)CC[C@@H]1[C@@]1(C)C=CC(=O)C(C)(C)[C@@H]1CC(=O)OC | -22.3 |
| CC(C)=CCc1c2c(c3occ(-c4ccc(O)cc4)c(=O)c3c1O)C=CC(C)(C)O2 | -3.94 ± 3.2 |
| COC(=O)C1=C(C)NC(C)=C(C(=O)OCCN(C)Cc2ccccc2)C1c1cccc([N+](=O)[O-])c1 (stereo not drawn) | -26 |
| O=C1C(O)=C([C@H]2CC[C@H](c3ccc(Cl)cc3)CC2)C(=O)c2ccccc21 | -5.63 |
| COc1ccc(-c2coc3cc(OC)cc(O)c3c2=O)cc1 | -21.1 |
| Cc1ccccc1C(OCCN(C)C)c1ccccc1 (stereo not drawn) | -23.7 |
| CC(=O)OC(C)(C)[C@@H]1Cc2cc3ccc(=O)oc3cc2O1 | -5.1 |

Taken from above:
Entry for COC(=O)C[C@H]1C(C)(C)[C@@H](OC(C)=O)[C@@H]2CC3C4CC(=O)O[C@@H](c5ccoc5)[C@]4(C)CCC3[C@@]1(C)C2=O (stereo partly drawn) under growth inhibition [%]: -8.86
Entry for COc1ccc(-c2coc3cc(OC)cc(O)c3c2=O)cc1 under growth inhibition [%]: -21.1
Entry for CC1(C)S[C@@H]2[C@H](NC(=O)Cc3ccccc3)C(=O)N2[C@H]1C(=O)O under growth inhibition [%]: -26.7
Entry for CCN(CC)Cc1cc(Nc2ccnc3cc(Cl)ccc23)ccc1O under growth inhibition [%]: -31.9

Later entries.

| Compound | growth inhibition [%] |
| --- | --- |
| CCCCCCCCCCCC1=C(O)C(=O)C=C(O)C1=O | 7.49 |
| COc1c2ccoc2cc2oc(=O)ccc12 | -4.11 |
| COc1ccc(-c2cc(=O)c3c(OC)cccc3o2)cc1 | 2.91 |
| CN(C)CCOC(c1ccc(Cl)cc1)c1ccccn1 (stereo not drawn) | -32.4 |
| NC(=O)NC1NC(=O)NC1=O (stereo not drawn) | -1.93 |
| C[C@@H]1CC[C@@]23CCC4(C)[C@@](C=CC5[C@@]6(C)CCC(=O)C(C)(C)C6CC[C@]54C)(OC2=O)C3[C@H]1C (stereo partly drawn) | -5.72 |
| CCCCNc1ccc(C(=O)OCCN(C)C)cc1 | -26.2 |
| CCN(CC)CCOc1ccc(C(=C(Cl)c2ccccc2)c2ccccc2)cc1 | 29 |
| CC1(C)CC[C@]2(C(=O)O)CC[C@]3(C)C(=CCC4[C@@]5(C)CC[C@@H](O)C(C)(C)C5CC[C@]43C)C2C1 (stereo partly drawn) | -4.75 |
| COc1cc2occ(-c3ccccc3)c(=O)c2c(OC)c1C | -17.3 |
| CN1CCOC(c2ccccc2)c2ccccc2C1 (stereo not drawn) | -40.8 |
| N=C(N)NCCCCN | -0.36 |
| CC(=O)O[C@H]1C[C@@H](OC(C)=O)C(C)(C)[C@@H]2C[C@@H](OC(C)=O)[C@@]3(C)C4=CC(=O)O[C@@H](c5ccoc5)[C@]4(C)CC[C@@H]3[C@@]12C | -9.33 |
| O=C1[C@H](CC[C@H](O)c2ccc(F)cc2)[C@@H](c2ccc(O)cc2)N1c1ccc(F)cc1 | -35.8 |
| C=C1C2CC[C@@]3(C)[C@H](c4ccoc4)OC(=O)C[C@]13O[C@H]1CC(=O)C(C)(C)[C@H](C(O)C(=O)OC)[C@@]21C (stereo partly drawn) | -15.8 |
| CCc1ccc2c(O)c3c(cc2c1C(=O)OC)C(=O)c1c(O)ccc(O)c1C3=O | -9.32 |
| NC(=O)c1ccc[n+]([C@@H]2O[C@H](COP(=O)([O-])OP(=O)(O)OC[C@H]3O[C@@H](n4cnc5c(N)ncnc54)[C@H](OP(=O)(O)O)[C@@H]3O)[C@@H](O)[C@H]2O)c1 [SODIUM beta-NICOTINAMIDE ADENINE DINUCLEOTIDE PHOSPHATE] | -7.03 |
| CC(C)Cc1ccc(C(C)C(=O)O)cc1 (stereo not drawn) | 31.6 |
| COC1=CC(=O)C=C(OC)C1=O | -5.65 |
| COCCc1ccc(OCC(O)CNC(C)C)cc1 (stereo not drawn) | -6.53 |
| COc1ccc(C(=O)c2ccccc2O)c(O)c1 | 2.86 ± 12 |

Reference: the supplement of paper PMC3047530
